For the assay, the target named is zebrafish glycine receptor alpha1 (GlyRα1), full-length, homopentamer in asolectin nanodiscs (zebrafish) (UniProt O93430). Put plainly: cryo-EM structure; purified GlyR in asolectin nanodiscs (MSP1E3D1), buffer A (200 mM NaCl, 20 mM HEPES pH 8.0); with or without 32 μM THC and 0, 0.1 or 1 mM glycine; Titan Krios 300 keV, RELION; homopentamer; both purified.

Results are given in words; binding and its absence hold for the method and conditions named. Some binding calls cover weakened binding; strength is not graded here.

B1: zebrafish glycine receptor alpha1 (GlyRα1), full-length, homopentamer in asolectin nanodiscs (receptor, UniProt O93430 25-444, looked up)
chain: ARKAASPMPPSEFLDKLMGKVSGYDARIRPNFKGPPVNVTCNIFINSFGSIAETTMDYRVNIFLRQQWNDPRLAYSEYPDDSLDLDPSMLDSIWKPDLFFANEKGANFHEVTTDNKLLRISKNGNVLYSIRITLVLACPMDLKNFPMDVQTCIMQLESFGYTMNDLIFEWDEKGAVQVADGLTLPQFILKEEKDLRYCTKHYNTGKFTCIEARFHLERQMGYYLIQMYIPSLLIVILSWVSFWINMDAAPARVGLGITTVLTMTTQSSGSRASLPKVSYVKAIDIWMAVCLLFVFSALLEYAAVNFIARQHKELLRFQRRRRHLKEDEAGDGRFSFAAYGMGPACLQAKDGMAIKGNNNNAPTSTNPPEKTVEEMRKLFISRAKRIDTVSRVAFPLVFLIFNIFYWITYKIIRSEDIHKQ
modifications: N-glycans at Asn62
notes: glycine receptor subunit alpha-1, zebrafish, codon-optimized full-length gene (NCBI NP_571477); residues of the models numbered as in UniProt O93430; Phe341-Lys394 (M3-M4 loop, ICD) not modelled in the structures; also called zebrafish homomeric GlyRα1; glycine α1 receptor
Regarding B1, the binding entry is reported as “binds”.
